# Source: US12359203B2, “Combination vectors and methods for treating cancer” (American Gene Technologies International Inc., priority 2016, dated 2025)
# At least one structure is not confirmed: it was looked up by name or label, or the drawing left a doubt.
# Test system: PC3 tumors
# Test: PC3 tumor growth in NOD/SCID mice, transduced cells with or without zoledronic acid
# Assay type: in vivo
# Conditions: tumors transduced with scrambled control LV, after zoledronic acid treatment
# Procedure: Protocol overview for co-administration of LV-shRNA-FDPS (farnesyl diphosphate synthase) with or without zoledronic acid in mice implanted with human prostate cancer cell line PC3. Tumor cells were cultured in vitro, then transduced with lentivirus vector control with a scrambled sequence (nonfunctional) shRNA insert and an expression cassette for firefly luciferase, or LV-FDPS with a shRNA capable of reducing expression of FDPS mRNA and an expression cassette for firefly luciferase. The transduced tumor cells were implanted on the flank of immune deficient mice by subcutaneous injection. Once tumors reached approximately 200 mm^3 volume, all mice receive a single dose of zoledronic acid (100 micrograms per kilogram body weight, which is similar to a standard human dose) in saline. 7 days after zoledronic acid injection, an imaging study was repeated to measure volume and photon intensity of individual tumors.
# Day—4: Material Preparation and Delivery. Prepare lenti-vector control and lenti-shRNA-FDPS transduced PC3 cells. • 1. […]
# Effects of LV-shRNA-FDPS with or without zoledronic acid on PC3 tumor growth in NOD/SCID mice. […] A bioluminescence imaging study on Day 8 determined the average tumor sizes prior to zoledronic acid treatment (FIG. 10A). The photon intensity for tumors was measured with a CCD light capture system.
smiles,measurement,value
O=P(O)(O)C(O)(Cn1ccnc1)P(=O)(O)O [zoledronic acid],change in tumor mass,little or no change
